In the supplement of paper PMC6078165:
The reference is the same well before dosing, and untreated signal decays as well.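 Fibroblast labels denote human fibroblasts, mainly primary ones from uterus (C12385, HUF), lung (H6013), bone (Hs27A), adrenal (HADF) and skin (WS1), plus mammary HMF and breast cancer-associated Hs343T. Cancer cells are basal-like or mesenchymal-like triple-negative breast cancer lines. A hit is a response shift exceeding 3x replicate standard deviation. The tissue of the other fibroblasts is not given here.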

System: MDAMB231
Assay: relative JC-1 red fluorescence (viability) vs pre-drug, coculture with fibroblast (fraction); higher = more viable cancer cells
Experimental: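 JC-1 labelled TNBC cells cocultured 1:1 (1,500 cells each) with CellTrace Violet stained primary or stromal fibroblasts in 384-well plates in FluoroBrite medium, treated with one of 42 anticancer drugs at 0.1, 1, 10 or 100 uM. JC-1 red fluorescence (mitochondrial integrity in cancer cells only) was read by plate reader every 8 h for 72 h. Values are normalised to each well's pre-drug value. The stock of one drug was tenfold lower, so its dose labels may be too high.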

O=c1[nH]cc(F)c(=O)[nH]1 [Fluorouracil]
relative JC-1 red fluorescence
Conditions | 8 h | 16 h | 24 h | 32 h | 40 h | 48 h | 56 h | 64 h | 72 h
10 µM, coculture fibroblast: C12385 | 0.7843 | 0.756 | 0.694 | 0.652 | 0.602 | 0.585 | 0.551 | 0.55 | 0.541
10 µM, coculture fibroblast: H6013 | 0.9034 | 0.82478 | 0.7809 | 0.7628 | 0.716 | 0.698 | 0.677 | 0.661 | 0.637
10 µM, coculture fibroblast: H6019 | 0.764 | 0.679 | 0.652 | 0.624 | 0.591 | 0.567 | 0.516 | 0.509 | 0.481
10 µM, coculture fibroblast: H6076 | 0.902 | 0.794 | 0.727 | 0.699 | 0.662 | 0.617 | 0.595 | 0.581 | 0.564
10 µM, coculture fibroblast: H6231 | 0.915 | 0.805 | 0.715 | 0.66 | 0.5975 | 0.5599 | 0.52032 | 0.499 | 0.48
10 µM, coculture fibroblast: HADF | 0.8936 | 0.8466 | 0.797 | 0.758 | 0.717 | 0.665 | 0.636 | 0.624 | 0.576
10 µM, coculture fibroblast: HCFa | 0.902 | 0.834 | 0.782 | 0.734 | 0.683 | 0.636 | 0.615 | 0.588 | 0.552
10 µM, coculture fibroblast: HCPF | 0.92 | 0.831 | 0.762 | 0.737 | 0.691 | 0.658 | 0.615 | 0.587 | 0.57
10 µM, coculture fibroblast: HHSteC | 0.9134 | 0.833 | 0.793 | 0.753 | 0.704 | 0.68 | 0.643 | 0.615 | 0.577
10 µM, coculture fibroblast: HMF | 0.942 | 0.853 | 0.759 | 0.711 | 0.655 | 0.603 | 0.556 | 0.526 | 0.504
10 µM, coculture fibroblast: HPFa | 0.9489 | 0.894 | 0.837 | 0.778 | 0.749 | 0.7104 | 0.66845 | 0.6418 | 0.594
10 µM, coculture fibroblast: HUF | 0.8234 | 0.722 | 0.739 | 0.61 | 0.541 | 0.53 | 0.483 | 0.485 | 0.475
10 µM, coculture fibroblast: Hs5 | 0.883 | 0.799 | 0.752 | 0.726 | 0.697 | 0.65 | 0.625 | 0.616 | 0.609
10 µM, coculture fibroblast: Hs27A | 0.906 | 0.85 | 0.8079 | 0.777 | 0.732 | 0.688 | 0.68929 | 0.679 | 0.638
10 µM, coculture fibroblast: Hs343T | 0.949 | 0.868 | 0.76 | 0.705 | 0.6369 | 0.576 | 0.516 | 0.488 | 0.455
10 µM, coculture fibroblast: WS1 | 0.7659 | 0.694 | 0.646 | 0.576 | 0.524 | 0.497 | 0.452 | 0.447 | 0.427
100 µM, coculture fibroblast: C12385 | 0.742 | 0.709 | 0.688 | 0.644 | 0.571 | 0.56 | 0.527 | 0.532 | 0.515
100 µM, coculture fibroblast: H6013 | 0.901 | 0.848 | 0.812 | 0.779 | 0.737 | 0.7008 | 0.677 | 0.652 | 0.606
100 µM, coculture fibroblast: H6019 | 0.748 | 0.681 | 0.698 | 0.647 | 0.619 | 0.608 | 0.584 | 0.592 | 0.567
100 µM, coculture fibroblast: H6076 | 0.899 | 0.823 | 0.797 | 0.792 | 0.764 | 0.741 | 0.744 | 0.739 | 0.725
100 µM, coculture fibroblast: H6231 | 0.917 | 0.793 | 0.7138 | 0.6709 | 0.6141 | 0.5857 | 0.5453 | 0.5275 | 0.4992
100 µM, coculture fibroblast: HADF | 0.875 | 0.839 | 0.8062 | 0.76769 | 0.732 | 0.702 | 0.688 | 0.6752 | 0.631
100 µM, coculture fibroblast: HCFa | 0.89597 | 0.84 | 0.8 | 0.773 | 0.735 | 0.685 | 0.659 | 0.641 | 0.607
100 µM, coculture fibroblast: HCPF | 0.9 | 0.778 | 0.73 | 0.7013 | 0.648 | 0.608 | 0.575 | 0.551 | 0.538
100 µM, coculture fibroblast: HHSteC | 0.902 | 0.851 | 0.801 | 0.761 | 0.718 | 0.69 | 0.66 | 0.639 | 0.598
100 µM, coculture fibroblast: HMF | 0.9283 | 0.8002 | 0.736 | 0.707 | 0.665 | 0.642 | 0.615 | 0.608 | 0.597
100 µM, coculture fibroblast: HPFa | 0.9382 | 0.87 | 0.812 | 0.7729 | 0.743 | 0.706 | 0.656 | 0.629 | 0.592
100 µM, coculture fibroblast: HUF | 0.834 | 0.7218 | 0.7836 | 0.6524 | 0.6016 | 0.609 | 0.5636 | 0.563 | 0.55475
100 µM, coculture fibroblast: Hs5 | 0.873 | 0.7868 | 0.7437 | 0.693 | 0.658 | 0.609 | 0.5933 | 0.576 | 0.5604
100 µM, coculture fibroblast: Hs27A | 0.89299 | 0.831 | 0.812 | 0.787 | 0.745 | 0.687 | 0.701 | 0.691 | 0.656
100 µM, coculture fibroblast: Hs343T | 0.902 | 0.817 | 0.761 | 0.728 | 0.684 | 0.646 | 0.59565 | 0.5774 | 0.5584
100 µM, coculture fibroblast: WS1 | 0.696 | 0.653 | 0.615 | 0.55 | 0.511 | 0.483 | 0.442 | 0.441 | 0.427
